Measured values reported in paper PMC5847874.
These are yes or no findings as the source states them, for the method shown. For some assays here: Binding seen in cells or lysates may run through a third protein. Some entries that bind do so weakly or less than the wild type.

Amino acid sequences for entries named in this document (tags omitted). A change or cut given only in a name is not applied to a line headed by its entry. Chains listed by the source or under a name are the forms on record and can include a tag or linker. Residues count along the entry.
UniProt Q9HAU4: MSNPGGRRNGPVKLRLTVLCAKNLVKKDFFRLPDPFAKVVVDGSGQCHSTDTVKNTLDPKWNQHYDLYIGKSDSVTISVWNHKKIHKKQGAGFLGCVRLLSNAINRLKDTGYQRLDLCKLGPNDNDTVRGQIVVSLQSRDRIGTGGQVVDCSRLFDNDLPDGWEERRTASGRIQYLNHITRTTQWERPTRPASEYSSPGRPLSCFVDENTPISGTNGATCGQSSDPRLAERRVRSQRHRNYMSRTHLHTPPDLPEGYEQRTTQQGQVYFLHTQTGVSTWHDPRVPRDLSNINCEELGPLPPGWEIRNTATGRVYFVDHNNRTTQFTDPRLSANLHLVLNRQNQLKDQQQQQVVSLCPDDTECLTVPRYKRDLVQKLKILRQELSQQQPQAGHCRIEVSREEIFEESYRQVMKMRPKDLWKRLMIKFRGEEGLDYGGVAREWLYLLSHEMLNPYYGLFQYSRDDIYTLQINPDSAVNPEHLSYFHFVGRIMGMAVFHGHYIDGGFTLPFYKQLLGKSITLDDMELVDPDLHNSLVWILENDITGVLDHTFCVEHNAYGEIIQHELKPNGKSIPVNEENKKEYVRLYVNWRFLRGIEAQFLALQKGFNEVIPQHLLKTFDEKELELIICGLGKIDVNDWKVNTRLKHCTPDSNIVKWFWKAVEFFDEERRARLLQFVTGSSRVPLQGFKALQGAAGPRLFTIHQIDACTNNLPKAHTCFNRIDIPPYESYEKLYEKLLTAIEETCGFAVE
lamin A (endogenous) (P02545, residues 1-646): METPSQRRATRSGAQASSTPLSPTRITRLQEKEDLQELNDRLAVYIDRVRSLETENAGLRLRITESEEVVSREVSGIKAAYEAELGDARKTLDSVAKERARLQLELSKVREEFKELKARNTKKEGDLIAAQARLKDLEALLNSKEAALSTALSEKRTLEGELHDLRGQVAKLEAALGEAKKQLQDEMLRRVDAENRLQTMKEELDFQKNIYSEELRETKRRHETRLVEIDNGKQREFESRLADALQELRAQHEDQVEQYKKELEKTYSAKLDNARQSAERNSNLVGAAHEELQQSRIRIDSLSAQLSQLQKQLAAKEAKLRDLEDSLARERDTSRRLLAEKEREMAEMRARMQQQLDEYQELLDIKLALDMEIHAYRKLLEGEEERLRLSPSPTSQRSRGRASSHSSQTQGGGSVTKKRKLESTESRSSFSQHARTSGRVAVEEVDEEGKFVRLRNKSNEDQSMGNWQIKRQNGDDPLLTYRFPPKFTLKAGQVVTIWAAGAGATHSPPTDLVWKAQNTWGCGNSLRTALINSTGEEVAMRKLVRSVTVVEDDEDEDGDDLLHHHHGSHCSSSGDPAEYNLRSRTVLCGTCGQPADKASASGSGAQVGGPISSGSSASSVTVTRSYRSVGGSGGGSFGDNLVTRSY
Flag–progerin (P02545-6, form named): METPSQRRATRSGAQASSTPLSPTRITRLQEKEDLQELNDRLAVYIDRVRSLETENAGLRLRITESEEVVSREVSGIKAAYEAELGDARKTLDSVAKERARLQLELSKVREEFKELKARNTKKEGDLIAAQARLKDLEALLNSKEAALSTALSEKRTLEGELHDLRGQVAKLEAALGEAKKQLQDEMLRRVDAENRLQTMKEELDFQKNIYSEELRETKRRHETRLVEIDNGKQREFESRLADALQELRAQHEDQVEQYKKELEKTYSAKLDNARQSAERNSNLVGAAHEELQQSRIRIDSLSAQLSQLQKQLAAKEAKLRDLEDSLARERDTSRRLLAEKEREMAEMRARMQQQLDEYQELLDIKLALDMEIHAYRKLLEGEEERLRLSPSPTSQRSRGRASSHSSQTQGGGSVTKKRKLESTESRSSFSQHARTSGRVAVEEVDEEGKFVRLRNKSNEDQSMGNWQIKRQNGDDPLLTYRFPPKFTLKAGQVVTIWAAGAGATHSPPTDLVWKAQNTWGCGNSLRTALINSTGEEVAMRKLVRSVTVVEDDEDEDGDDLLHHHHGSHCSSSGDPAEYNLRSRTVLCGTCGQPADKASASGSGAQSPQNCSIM

Assays:
[1] = target: Myc-Smurf2 (UniProt Q9HAU4); experiment: proximity ligation; HEK-293T cells co-transfected with Flag-lamin A or Flag-progerin and Myc-Smurf2; Duolink In Situ Red kit with anti-Flag and anti-Myc antibodies; empty Myc vector as control
[2] = target: GST-Smurf2 (UniProt Q9HAU4); experiment: in vitro binding assay; purified GST-Smurf2 with purified Flag-lamin A or Flag-progerin; which was held is not told; both purified
[3] = target: Smurf2 (endogenous) (human (endogenous in HEK-293T)) (UniProt Q9HAU4); experiment: co-IP; endogenous proteins in HEK-293T lysates (different lysis conditions: 0.5% or 1% NP-40, freeze-thawing or RIPA buffer); anti-Smurf2 antibody (sc-25511) or rabbit IgG overnight at 4°C, protein G-Sepharose; blot for lamin A/C

Row | Substance | binding [1] | binding [2] | binding [3]
1 | Flag–lamin A (from UniProt P02545 1-646) | binds | binds | –
2 | Flag–progerin (from UniProt P02545-6 1-614) | binds | binds | –
3 | lamin A (endogenous) (from UniProt P02545 1-646) | – | – | binds
